# Assay results reported in the supplement of paper PMC8728848.
# The other results are listed elsewhere or left out.
# B1: PX14343G-pdi-535-24-535 (Parabacteroides distasonis) (protein)
# chain: LDTVPKDQLAPSTTWQTEADAKGFIVGCYKDLLDGNTLLYLDCGSDIGYNNFPWEGFRPWGDGSLSSSNPGQILYDYKSIRKANTFLENVDKVTFSSDAVKANYVAQAKAIRAYKYFLMNWWYGGVPIISSYSSADEAKVERNTEQEVRDYIAKDLDEALAGIAEAPEARGYIAKGAVLAIKMREALYYGDWQKAKDAAKAIIDLKQYELDPDYTNLFKVSGVDSKEIILADQNIETLDGLGTIGQMYNNVDQGWSSIVPTQNLVDMYEMSDGLTKEESKTYDAKHPFANRDPRMAMTILYPGRDWRGDVLNTLDEKLQDGTVNKNFPTYTDNASKSALTWAKYLDPMDQYGDVWSSGACPIVFRYAEVLLTYAEAANELSGPSDEIYGYLNQIRQRVGMGEVDKAKYGTKDKLRELIRRERTVELAGEGLRRADIVRWQEDGKMLAEKVMNGDLLRVTGTINYGESEPTKRAEITGTAVIETRQFSSRNRYLPIPQTSMDKNPNLKQNPGY
# Columns and labels:
# Experiment in all cases: glycan array binding signal (z-score within array); higher = stronger binding
# Conditions in all cases: glycan notation: IUPAC condensed, linker removed
# Gal3S(b1-4)Glc = target: Gal3S(b1-4)Glc
# Method in brief: (§1)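 The Consortium for Functional Glycomics database supplied 3228 glycan arrays, of which those lacking an available protein sequence were dropped. The binding signal, a within-array Z-score, was averaged across arrays of the same protein sequence and across linkers. Negative scores can be read as non-binding.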
# Gal3S(b1-4)Glc6S = target: Gal3S(b1-4)Glc6S
# Method in brief: as §1
# Gal3S(b1-4)GlcNAc = target: Gal3S(b1-4)GlcNAc
# Method in brief: as §1
# [1] = target: Gal3S(b1-4)[Fuc(a1-3)]Glc6S
# Method in brief: as §1
# [2] = target: Gal3S(b1-4)[Fuc(a1-3)]GlcNAc
# Method in brief: as §1
# [3] = target: Gal3S(b1-4)[Fuc(a1-3)]GlcNAc6S
# Method in brief: as §1
# Gal3S4S(b1-4)GlcNAc = target: Gal3S4S(b1-4)GlcNAc
# Method in brief: as §1
# Gal3S6S(b1-4)GlcNAc = target: Gal3S6S(b1-4)GlcNAc
# Method in brief: as §1
# Gal3S6S(b1-4)GlcNAc6S = target: Gal3S6S(b1-4)GlcNAc6S
# Method in brief: as §1
# Gal4S(b1-4)GlcNAc = target: Gal4S(b1-4)GlcNAc
# Method in brief: as §1
# Gal4S6S(b1-4)GlcNAc = target: Gal4S6S(b1-4)GlcNAc
# Method in brief: as §1
# Gal6P(b1-4)GlcNAc = target: Gal6P(b1-4)GlcNAc
# Method in brief: as §1
# Gal6S(b1-3)GlcNAc = target: Gal6S(b1-3)GlcNAc
# Method in brief: as §1
# Gal6S(b1-3)GlcNAc6S = target: Gal6S(b1-3)GlcNAc6S
# Method in brief: as §1
# Gal6S(b1-4)Glc = target: Gal6S(b1-4)Glc
# Method in brief: as §1
# Gal6S(b1-4)Glc6S = target: Gal6S(b1-4)Glc6S
# Method in brief: as §1
# Gal6S(b1-4)GlcNAc = target: Gal6S(b1-4)GlcNAc
# Method in brief: as §1
# Gal6S(b1-4)GlcNAc6S = target: Gal6S(b1-4)GlcNAc6S
# Method in brief: as §1
# GalNAc(a1-3)Gal = target: GalNAc(a1-3)Gal
# Method in brief: as §1
# GalNAc(a1-3)GalNAc = target: GalNAc(a1-3)GalNAc
# Method in brief: as §1
# [4] = target: GalNAc(a1-3)GalNAc(b1-3)Gal(a1-4)Gal(b1-4)Glc
# Method in brief: as §1
# [5] = target: GalNAc(a1-3)GalNAc(b1-3)Gal(a1-4)Gal(b1-4)GlcNAc
# Method in brief: as §1
# GalNAc(b1-3)Gal = target: GalNAc(b1-3)Gal
# Method in brief: as §1
# [6] = target: GalNAc(b1-3)Gal(a1-4)Gal(b1-4)GlcNAc
# Method in brief: as §1
# [7] = target: GalNAc(b1-3)Gal(a1-4)Gal(b1-4)GlcNAc(b1-3)Gal(b1-4)Glc
# Method in brief: as §1
# [8] = target: GalNAc(b1-3)Gal(a1-6)Gal(b1-4)Glc
# Method in brief: as §1
# GalNAc(b1-3)GalNAc = target: GalNAc(b1-3)GalNAc
# Method in brief: as §1
# GalNAc(b1-3)GlcNAc = target: GalNAc(b1-3)GlcNAc
# Method in brief: as §1
# GalNAc(b1-4)Gal(b1-4)Glc = target: GalNAc(b1-4)Gal(b1-4)Glc
# Method in brief: as §1
# GalNAc(b1-4)GlcNAc = target: GalNAc(b1-4)GlcNAc
# Method in brief: as §1
# [9] = target: GalNAc(b1-4)GlcNAc(b1-2)Man
# Method in brief: as §1
# [10] = target: GalNAc(b1-4)GlcNAc(b1-2)Man(a1-3)[GalNAc(b1-4)GlcNAc(b1-2)Man(a1-6)]Man(b1-4)GlcNAc(b1-4)GlcNAc
# Method in brief: as §1
# [11] = target: GalNAc(b1-4)GlcNAc(b1-3)GalNAc(b1-4)GlcNAc
# Method in brief: as §1
# GalNAc(b1-4)GlcNAc6S = target: GalNAc(b1-4)GlcNAc6S
# Method in brief: as §1
# GalNAc(b1-6)GalNAc = target: GalNAc(b1-6)GalNAc
# Method in brief: as §1
# GalNAc3S(b1-4)GlcNAc = target: GalNAc3S(b1-4)GlcNAc
# Method in brief: as §1
# GalNAc3S(b1-4)GlcNAc3S = target: GalNAc3S(b1-4)GlcNAc3S
# Method in brief: as §1
binder,measurement,setting,value
B1,glycan array binding signal (z-score),Gal3S(b1-4)Glc,0.612
same,glycan array binding signal (z-score),Gal3S(b1-4)Glc6S,0.802
same,glycan array binding signal (z-score),Gal3S(b1-4)GlcNAc,0.428
same,glycan array binding signal (z-score),[1],0.549
same,glycan array binding signal (z-score),[2],0.621
same,glycan array binding signal (z-score),[3],2.01
same,glycan array binding signal (z-score),Gal3S4S(b1-4)GlcNAc,-0.26
same,glycan array binding signal (z-score),Gal3S6S(b1-4)GlcNAc,0.193
same,glycan array binding signal (z-score),Gal3S6S(b1-4)GlcNAc6S,-0.415
same,glycan array binding signal (z-score),Gal4S(b1-4)GlcNAc,-0.268
same,glycan array binding signal (z-score),Gal4S6S(b1-4)GlcNAc,-0.635
same,glycan array binding signal (z-score),Gal6P(b1-4)GlcNAc,-0.509
same,glycan array binding signal (z-score),Gal6S(b1-3)GlcNAc,-0.74
same,glycan array binding signal (z-score),Gal6S(b1-3)GlcNAc6S,-0.027
same,glycan array binding signal (z-score),Gal6S(b1-4)Glc,-0.698
same,glycan array binding signal (z-score),Gal6S(b1-4)Glc6S,0.442
same,glycan array binding signal (z-score),Gal6S(b1-4)GlcNAc,-0.595
same,glycan array binding signal (z-score),Gal6S(b1-4)GlcNAc6S,-0.672
same,glycan array binding signal (z-score),GalNAc(a1-3)Gal,0.265
same,glycan array binding signal (z-score),GalNAc(a1-3)GalNAc,0.818
same,glycan array binding signal (z-score),[4],-0.212
same,glycan array binding signal (z-score),[5],0.409
same,glycan array binding signal (z-score),GalNAc(b1-3)Gal,-0.865
same,glycan array binding signal (z-score),[6],-0.442
same,glycan array binding signal (z-score),[7],0.782
same,glycan array binding signal (z-score),[8],1.05
same,glycan array binding signal (z-score),GalNAc(b1-3)GalNAc,1.43
same,glycan array binding signal (z-score),GalNAc(b1-3)GlcNAc,-0.329
same,glycan array binding signal (z-score),GalNAc(b1-4)Gal(b1-4)Glc,0.84
same,glycan array binding signal (z-score),GalNAc(b1-4)GlcNAc,-0.473
same,glycan array binding signal (z-score),[9],-2.07
same,glycan array binding signal (z-score),[10],1.28
same,glycan array binding signal (z-score),[11],-1.17
same,glycan array binding signal (z-score),GalNAc(b1-4)GlcNAc6S,-0.01
same,glycan array binding signal (z-score),GalNAc(b1-6)GalNAc,-0.038
same,glycan array binding signal (z-score),GalNAc3S(b1-4)GlcNAc,-0.044
same,glycan array binding signal (z-score),GalNAc3S(b1-4)GlcNAc3S,0.059

# Another view of some results above:
binder	measurement	setting	value
B1	glycan array binding signal (z-score)	Gal3S4S(b1-4)GlcNAc	-0.26
same	glycan array binding signal (z-score)	Gal3S6S(b1-4)GlcNAc	0.193
